This is an account of results in patent US8182837B2, “Methods and compositions for reducing the risk associated with the administration of opioid analgesics in patients with diagnosed or undiagnosed respiratory illness” (QRxPharma Limited, priority 2003, dated 2012).

Read-outs that look alike come from different tables or passages of the source.

For series [1] the following is noted: oral syrup, steady-state, 21 patients.
The conditions of series [2]: oral syrup, steady-state.

As for `CN1CC[C@]23c4c5ccc(O)c4O[C@H]2[C@@H](O)C=C[C@H]3[C@H]1C5` [Morphine, morphine], the “Dose (by weight) required for stabilized pain control” value in series [1] came out at 108 mg; in series [2] it was 68 mg.
